The subject of the data set is human gastric cancer cell line MGC-803. The experiment in a line: MTT antiproliferation assay, MGC-803 cells. In kind it is cell-based. The note with it: IC50 (GES-1)/IC50 (MGC-803). How it is done:
The human gastric cancer cell line MGC-803 and human normal gastric epithelial cell line GES-1 were cultured in DMEM containing penicillin (100 U/mL), streptomycin (100 μg/mL), and 10% FBS at 37 °C with 5% CO2. Cells that used in experiments were passaged at least three times.
Cells were seeded in 96-well plates at a density of 5 × 10^4/well and cultured at 37 °C with 5% CO2 for 24 h. And then, compounds (1–5) in various concentrations were introduced with incubation for another 48 h. Finally, 10 μL MTT (5 mg/mL) was added to each well. After 4 h incubation, the medium was removed and 150 μL DMSO was added. Absorbance was read on a Microplate Reader at 570 nm (Bio Tek, Thenceforth, USA) (Li et al. [2014]). The MTT assay aims to evaluate the antiproliferative effects of the test compounds in MGC-803 cells and the cytotoxic effects in GES-1 cells.

Molecules are shown by their SMILES.

For the compound `C/C(=C/CC/C(C)=C\COc1ccc2ccc(=O)oc2c1)CO` [Compound 3, 7-(((2′Z,6′Z)-9′-hydroxy-3′,7′-dimethylocta-2′,6′-dien-1′-yl)oxy)-2H-chromen-2-one], the “TI (therapeutic index)” value was 5.4.
The figure for `C/C(=C/C(O)C/C(C)=C\COc1ccc2ccc(=O)oc2c1)CO` (stereo not shown) [Compound 5, 7-(((2′Z,6′Z)-5′,9′-hydroxy-3′,7′-dimethylocta-2′,6′-dien-1′-yl)oxy)-2H-chromen-2-one] is 3.3.
For the compound `C/C(=C/COc1ccc2ccc(=O)oc2c1)CCCO` [Compound 2, 2′-Z auraptene A], the “TI (therapeutic index)” value was found to be 59.0.
On to `CC(C)=CCC/C(C)=C\COc1ccc2ccc(=O)oc2c1` [Compound 1, (Z)-7-((3′,7′-dimethylocta-2′,6′-dien-1′-yl)oxy)-2H-chromen-2-one], for which the “TI (therapeutic index)” value was determined as 5.5.

Values taken from publication PMC6028838, “A new terpene coumarin microbial transformed by Mucor polymorphosporus induces apoptosis of human gastric cancer cell line MGC-803” (Archives of Pharmacal Research, 2018).
